Log data for 26 molecules are collected here from the supplement of paper PMC7024190.

Structures can show the parent of a compound that is named as a salt. This is one part of the list. Single values are uncertain here, since repeats match poorly.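 The cells were human embryonic kidney cells carrying a Renilla luciferase gene, driven by the HSV-TK promoter, on a plasmid put in briefly by transfection. This is the first-round screen of about ten thousand compounds, looking for ones that raise reporter output.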

The test system of this assay is HEK 293FT. Put plainly: log relative Renilla luciferase luminescence (reporter expression vs reference, reference not stated) (log (base not stated)); higher = higher recombinant reporter expression. The following applies: 10 µM; time after transfection 48 h.
As for `N[C@H](C(=O)O)[C@H](OCc1ccccc1)C(=O)O` (racemic), the log is 0.143. In the case of `CC(NC(=O)c1ccccc1/N=C/c1c(O)ccc2ccccc12)c1ccccc1` (stereo unspecified) [Sirtinol], the log was -0.00841. Under `O=C(/C=C/c1ccc(O)c(O)c1)O[C@H](Cc1ccc(O)c(O)c1)C(=O)O` [Rosmarinic acid] stands 0.0467; under `COCCOC(=O)C1=C(C)NC(C)=C(C(=O)OC/C=C/c2ccccc2)C1c1cccc([N+](=O)[O-])c1` (stereo unspecified) [Cilnidipine], -0.096; under `Oc1ccc(-c2c(-c3ccccc3)nn3c(C(F)(F)F)cc(C(F)(F)F)nc23)cc1`, -0.0566. For the molecule `CN1Cc2c(C(=O)OC(C)(C)C)ncn2-c2ccsc2C1=O`, the log amounted to 0.0837. Under `CC(C)C[C@H](NC(=O)N1CCCCCC1)C(=O)N[C@H](Cc1cn(C)c2ccccc12)C(=O)N[C@H](Cc1ccccn1)C(=O)O` stands 0.116. Under `C[C@]12CC[C@@H]3c4ccc(O)cc4C[C@@H](CCCCCCCCC[S+]([O-])CCCC(F)(F)C(F)(F)F)[C@H]3[C@@H]1CC[C@@H]2O` (stereo partly specified) stands -0.0811; under `O=C(O)COc1ccc(OCCNC[C@H](O)COc2ccccc2)cc1` [ICI 215,001 hydrochloride], 0.072; under `Cc1cc(Cn2cnc3c2CC(C(=O)O)N(C(=O)C(c2ccccc2)c2ccccc2)C3)ccc1N(C)C` (stereo unspecified), -0.0903. Under `Cc1ccc(CC2(O)CCN(CCOc3ccc(O)cc3)CC2)cc1` stands -0.051; under `O=C(Nc1ccccc1)C12CC1C(=NO)c1ccccc1O2` (stereo unspecified), -0.151.

Take `C[N+](C)(C)CCCCCNCC12CC3CC(CC(C3)C1)C2`: the log came out at 0.125. For `FC(F)(F)c1cc(COC2CCCNC2c2ccccc2)cc(C(F)(F)F)c1` [L-733,060 hydrochloride] the value was 0.035; for `Clc1ccc(CCCOCCCN2CCCCC2)cc1`, -0.0169. Under `c1ccc2nc(C3=NCCN3)cnc2c1` [BU 239 hydrochloride] stands 0.0458; under `CCc1cc2c(c(CC)n1)CCC(=O)N2Cc1ccc(-c2ccccc2-c2nn[nH]n2)cc1` [ZD 7155 hydrochloride], 0.0674. Take `CC1Nc2ccc(Cl)cc2S(=O)(=O)N1` (stereo unspecified): the log stood at 0.12. Consider `COc1ccc(S(=O)(=O)N2c3ccc(Cl)cc3[C@](O)(c3ccccc3Cl)[C@@H]2C(=O)N2CCC[C@H]2C(N)=O)cc1OC`, for which the log was -0.151. As to `CCc1cc(C(C)=O)c(O)cc1OCCCCCC(C)(C)c1nn[nH]n1`, the log is -0.129. Under `CC[N+](CC)(CC)CCOc1ccc(/C=C/c2ccccc2)cc1` stands -0.12. Under `c1ccc2oc(C3=NCCN3)cc2c1` [2-BFI hydrochloride] stands 0.0628; under `CN(C)c1nc(N)c(C(=O)Nc2cccnc2)nc1Cl` [ACDPP hydrochloride], 0.151; under `CNC(=O)c1cc2c(cn1)[nH]c1ccccc12`, -0.127. For `CCn1c(=O)[nH]c2cc(Cl)c(Cl)cc21` the value was 0.0932; for `O=c1cc(N2CCNCC2)oc2c(-c3ccccc3)cccc12`, -0.216.
